# PubChem BioAssay AID504834 (National Center for Advancing Translational Sciences (NCATS), 2011)
# In all, about 320,000 compounds went through this assay and about 22,000 (6.9%) were called active. This list was built around the results that the source calls inconclusive (neither active nor inactive); the mix of calls is not that of the screen. Calls follow the shape of the dose curve; as a rule, active = well fitted inhibition curve with a large enough effect; inconclusive = small, poorly fitted or top-dose-only effect, or another doubt; inactive = no such curve, though single readings can be large or run the other way. Potencies of inconclusive entries are doubtful fits and often do not repeat.
# Assay: Primary qHTS for delayed death inhibitors of the malarial parasite plastid, 96 hour incubation
# Settings: P. falciparum luciferase reporter growth; series mostly up to 28.7 µM
# Outline: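 Luminescence readout: decreased luciferase signal marks inhibited growth of reporter-expressing P. falciparum in infected red cells (2% hematocrit, 0.05% parasitemia final), exposed to compound two generations (96 h, 37 C, 5% CO2).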
# Potency is read from the fitted curve at half-maximal effect.
row,SMILES,Potency
1,CCN1CCN(C(=O)CCc2nc3ccccc3c(=O)[nH]2)CC1,inactive
2,CN1C(=O)c2ccccc2N(C)C1c1cccc(O)c1 (stereo unspecified),"inconclusive: 13.1 µM [inhibitor, single point]"
3,Cc1cc(Oc2ccc(-c3ccccc3)cc2)nc(N2CCOCC2)n1,"inconclusive: 6.57 µM [inhibitor, partial curve, poor fit]"
4,COc1ccc(C(C(=O)NC2CCCC2)N(C(=O)c2snc(-c3ccc(F)cc3)c2N)c2cccc(F)c2)cc1 (stereo unspecified),inactive
5,O=C(CSCc1ccc(Cl)cc1)NCc1ccc2c(c1)OCO2,inactive
6,Cc1ccc(-c2cc(-c3ccc(F)cc3)c(C#N)c(N)n2)o1,inactive
7,COc1ccc(CNS(=O)(=O)c2ccc(-c3cnc(C4CC4)o3)cc2)cc1,active: 10.4 µM
8,CCOc1ccc(CNCc2cccnc2)cc1,"inconclusive: 7.38 µM [inhibitor, partial curve, poor fit]"
9,Cc1cc(C)c2sc(NC(=O)C3=COCCO3)nc2c1,inactive
10,S=C1NCCc2ccc(Cl)cc2C1c1ccccc1 (stereo unspecified),inactive
11,COc1ccc(OC)c(/C=N/Nc2nncn2/N=C/c2cc(OC)ccc2OC)c1,"inconclusive: 18.5 µM [inhibitor, single point]"
12,COc1ccc(-c2c(-c3ccccc3OC)oc3ccccc23)cc1F,active: 2.62 µM
13,COc1ccc(Nc2ncc(C(=O)N3CCN(c4ccc(F)cc4)CC3)c3ccccc23)cc1,active: 1.85 µM
14,CCc1ccc(OCCn2cccn2)cc1,inactive
15,COc1ccc(N=C2O/C(=C/c3sc(=S)n(CC4CCCO4)c3O)N=C2C#N)cc1 (stereo unspecified),active: 14.7 µM
16,c1ccc(OCC2CCNCC2)nc1,"inconclusive: 16.5 µM [inhibitor, single point]"
17,COc1ccc(NC(=O)CSc2nnc(Cc3ccc(C)cc3)c(=O)n2N)cc1,"inconclusive: 18.5 µM [inhibitor, single point]"
18,O=C(CSC1=NCCN1)NC1CCCCCC1,"inconclusive: 16.5 µM [inhibitor, single point]"
19,O=C(CSc1nccn1Cc1ccccc1)Nc1ccccc1,inactive
20,CC(C)(C)c1nc2c(Br)cc(Br)cc2c(=O)o1,active: 0.37 µM
21,CC(C)(C)NC(=O)C(=O)NN=C1CCCCCCCCCCC1,"inconclusive: 18.5 µM [inhibitor, single point]"
22,O=C(CSc1nc2ccccc2c(=O)n1-c1ccccc1)N1CCc2ccccc2C1,active: 2.62 µM
23,Fc1ccc(/C=N/NC2=Nc3cccc4cccc2c34)cc1,inactive
24,Cc1ccc(C(=O)/C=C/c2cn(CC(O)CN3CCOCC3)c3ccccc23)cc1 (stereo unspecified),active: 11.7 µM
25,COc1cc(OC)c2cc(C(=O)N/N=C/c3cccc(OC)c3O)[nH]c2c1,"inconclusive: 1.65 µM [inhibitor, full curve, poor fit]"
26,Cc1cccc(C)c1N1CCN(S(=O)(=O)c2ccccc2)CC1,"inconclusive: 0.928 µM [inhibitor, partial curve, poor fit]"

row,SMILES,Potency
1,Cc1ccccc1CNC(=O)CCC(=O)N1CCOc2ccc(Cl)cc21,"inconclusive: 10.4 µM [inhibitor, partial curve, poor fit]"
2,Cc1cccnc1NC(=O)CCCc1c[nH]c2ccccc12,"inconclusive: 3.7 µM [inhibitor, partial curve, poor fit]"
3,CC(NC(=O)/C(=C/c1ccc(OC(F)F)cc1)c1ccccc1)c1ccccc1 (stereo unspecified),"inconclusive: 18.5 µM [inhibitor, single point]"
4,Cc1cc(OCC(O)CN2CCCC2)cc(C)c1Cl (stereo unspecified),inactive
5,COc1ccc2[nH]c(=O)c(CN(Cc3nnnn3Cc3ccco3)C3CCCCC3)cc2c1,active: 5.22 µM
6,Cc1ccc(CC(=O)Nc2cc(C)on2)cc1,"inconclusive: 18.5 µM [inhibitor, single point]"
7,Clc1ccccc1-c1nnc2n1CCCCC2,inactive
8,CC(=O)c1ccc(S(=O)(=O)Nc2cccc(-c3cn4c(n3)SCC4)c2)cc1,"inconclusive: 18.5 µM [inhibitor, single point]"
9,COc1ccc(C(=O)NCC(c2ccco2)N2CCc3ccccc32)cc1OC (stereo unspecified),inactive
10,O=C(C1CCN(S(=O)(=O)c2ccccc2F)CC1)N1CCc2ccccc21,"inconclusive: 10.4 µM [inhibitor, single point]"
11,COc1ccc(NC(=O)C2CC2)cc1NS(=O)(=O)c1ccc(F)cc1,"inconclusive: 3.7 µM [inhibitor, partial curve, poor fit]"
12,COc1cccc(CNC(=O)CCC(=O)N2CC(C)Oc3ccccc32)c1OC (stereo unspecified),active: 5.22 µM
13,COc1ccc(CNC(=O)CN(c2ccccc2)S(=O)(=O)c2ccccc2[N+](=O)[O-])cc1,inactive
14,CC(=O)N1CCc2cc(Br)cc(S(=O)(=O)N3CCCCC3)c21,"inconclusive: 16.5 µM [inhibitor, single point]"
15,Cc1nn(CC(=O)Nc2cccnc2N2CCOCC2)c(=O)c2ccccc12,inactive
16,N=c1c2c3c(sc2ncn1Cc1ccco1)CCCCC3,"inconclusive: 18.5 µM [inhibitor, single point]"
17,Cc1ccccc1NS(=O)(=O)c1ccc(NC(=O)c2nc3ncccn3n2)cc1,"inconclusive: 1.31 µM [inhibitor, partial curve, poor fit]"
18,COc1ccccc1CNC(=O)[C@@H]1CCCN1S(=O)(=O)c1ccccc1F,inactive
19,COc1ccc(C(=O)N2CC3(CC(c4cccc(NC(=O)CC(c5ccccc5)c5ccccc5)c4)=NO3)C[C@H]2C(N)=O)cc1 (stereo partly specified),"inconclusive: 18.5 µM [inhibitor, single point]"
20,C/C(=N/NC(=O)CCc1ccccc1)c1ccc2c(c1)OCO2,"inconclusive: 13.1 µM [inhibitor, single point]"
21,COc1cccc(-c2ccc3ncnc(NCc4cccnc4)c3c2)c1,"inconclusive: 18.5 µM [inhibitor, single point]"
22,Cc1ccc(S(=O)(=O)N(C)c2ccc(C(=O)NCC3CCCO3)cc2)cc1 (stereo unspecified),inactive
23,Cc1c(CC(=O)N2C[C@H]3C[C@@H](C2)c2cccc(=O)n2C3)c(=O)oc2cc(O)c(Cl)cc12,inactive
24,Cc1cccn2c(=O)nc(SCC(=O)N3CCOCC3)nc12,inactive
25,CC1(C)Cc2c(c(N3CCOCC3)nc3sc4c(NCC5CCCO5)nnnc4c23)CS1 (stereo unspecified),"inconclusive: 11.7 µM [inhibitor, partial curve, poor fit]"
26,CC(C)(C)C(=O)Nc1ccc(C(=O)Nc2cccnc2)cc1,inactive

row,SMILES,Potency
1,CCN(c1ccccc1)S(=O)(=O)c1ccc(C(=O)Oc2ccc(C(C)=O)cc2)cc1,inactive
2,Cc1ccc2c(c1)C1CN(C)CCC1N2C(=O)COc1ccccc1F (stereo unspecified),active: 11.7 µM
3,Cc1cc(C)c(S(=O)(=O)Nc2ccccc2C(=O)OCC(=O)NCc2ccccc2)c(C)c1,inactive
4,CCOC(=O)c1c(C)[nH]c(C)c1C(=O)COC(=O)/C=C/c1ccc(OC)cc1,"inconclusive: 18.5 µM [inhibitor, single point]"
5,Cc1ccc(-c2nnc(COC(=O)c3ccco3)o2)cc1,"inconclusive: 18.5 µM [inhibitor, single point]"
6,CC1CN(C(=S)NC(=O)c2cccc([N+](=O)[O-])c2)CC(C)O1 (stereo unspecified),"inconclusive: 13.1 µM [inhibitor, partial curve, poor fit]"
7,O=C(NCCC1CCCCN1S(=O)(=O)c1ccc(F)cc1)C(=O)NCc1ccccn1 (stereo unspecified),"inconclusive: 16.5 µM [inhibitor, single point]"
8,Cc1nnc(SCC(=O)Nc2ccc([N+](=O)[O-])cc2)n1C,"inconclusive: 4.15 µM [inhibitor, single point]"
9,COc1ccc(Cl)c2sc(N(Cc3cccnc3)C(C)=O)nc12,"inconclusive: 18.5 µM [inhibitor, single point]"
10,CC(=O)Oc1cc2oc(=O)cc(C)c2cc1Cl,inactive
11,COC(=O)c1cccc(-n2[nH]nnc2=S)c1,"inconclusive: 0.0828 µM [inhibitor, full curve, poor fit]"
12,O=C(CNC(=O)c1ccc(Br)o1)NCc1cccc(Cl)c1,"inconclusive: 18.5 µM [inhibitor, single point]"
13,Cn1c(=NC(=O)CS(=O)(=O)c2ccccc2)sc2cc([N+](=O)[O-])ccc21,"inconclusive: 2.33 µM [inhibitor, full curve]"
14,CC(C)C(C(=O)OCC(=O)c1ccccc1)N1C(=O)C2C3C=CC(C3)C2C1=O (stereo unspecified),inactive
15,CC(=O)Nc1ccc(S(=O)(=O)C(C#N)c2nc3ccccc3nc2NCCCO)cc1 (stereo unspecified),"inconclusive: 7.38 µM [inhibitor, partial curve, poor fit]"
16,Cc1cc(C)c2c(CC(=O)NC3CCS(=O)(=O)C3)coc2c1 (stereo unspecified),"inconclusive: 2.62 µM [inhibitor, single point]"
17,CCC(C(=O)Nc1cccnc1)c1ccccc1 (stereo unspecified),inactive
18,CCN(CC)S(=O)(=O)N1CCN(S(=O)(=O)N2CCOCC2)CC1,inactive
19,CC/C(=N/O)C(=O)c1ccc(Br)cc1,"inconclusive: 11.7 µM [inhibitor, single point]"
20,CCN(C(=O)COC(=O)/C=C/c1ccc(O)c(OC)c1)C1CCS(=O)(=O)C1 (stereo unspecified),inactive
21,CCOC(=O)C1(CCc2ccccc2)CCN(C(=O)CCc2cnn(C)c2)CC1,"inconclusive: 18.5 µM [inhibitor, single point]"
22,CC(C)C1Cc2c(C#N)c(N)sc(=S)c2CO1 (stereo unspecified),inactive
23,COc1ccc(/C=C2/C(=O)NC(=O)N(c3ccccc3)C2=O)cc1CN1C(=O)c2ccccc2C1=O,inactive
24,CN(CC(=O)Nc1ccccc1Br)C(=O)c1cccnc1Nc1cccc(C(F)(F)F)c1,"inconclusive: 10.4 µM [inhibitor, single point]"

# Already shown: entries from further up.
row,SMILES,Potency
6,CC1CN(C(=S)NC(=O)c2cccc([N+](=O)[O-])c2)CC(C)O1 (stereo unspecified),"inconclusive: 13.1 µM [inhibitor, partial curve, poor fit]"
7,O=C(NCCC1CCCCN1S(=O)(=O)c1ccc(F)cc1)C(=O)NCc1ccccn1 (stereo unspecified),"inconclusive: 16.5 µM [inhibitor, single point]"

# Some of these compounds in order of molar mass, rising.
row,SMILES,Potency
8,CCOc1ccc(CNCc2cccnc2)cc1,"inconclusive: 7.38 µM [inhibitor, partial curve, poor fit]"
21,CCOC(=O)C1(CCc2ccccc2)CCN(C(=O)CCc2cnn(C)c2)CC1,"inconclusive: 18.5 µM [inhibitor, single point]"
25,CC1(C)Cc2c(c(N3CCOCC3)nc3sc4c(NCC5CCCO5)nnnc4c23)CS1 (stereo unspecified),"inconclusive: 11.7 µM [inhibitor, partial curve, poor fit]"
